Laboratory results: patent US20170112896A1, “SMALL MOLECULE RAC OR RHO INHIBITORS” (Ohio State Innovation Foundation, priority 2014, published 2017)
Not every detail of the peptide structures is certain; ends, links or a residue may be inferred. Square brackets hold non-standard residues; d marks the D form. Peptide text beside a SMILES is read from it. * marks the point of attachment. FITC = O=C1OC2(c3ccc(O)cc3Oc3cc(O)ccc32)c2ccc(NC(=S)*)cc21; Phe(4-F) = N[C@@H](Cc1ccc(F)cc1)C(=O)O; d2Nal = N[C@H](Cc1ccc2ccccc2c1)C(=O)O; dNle = CCCC[C@@H](N)C(=O)O

Sequences of proteins named here, by UniProt entry; tags and fusion partners are left off.
UniProt P60953, whole entry: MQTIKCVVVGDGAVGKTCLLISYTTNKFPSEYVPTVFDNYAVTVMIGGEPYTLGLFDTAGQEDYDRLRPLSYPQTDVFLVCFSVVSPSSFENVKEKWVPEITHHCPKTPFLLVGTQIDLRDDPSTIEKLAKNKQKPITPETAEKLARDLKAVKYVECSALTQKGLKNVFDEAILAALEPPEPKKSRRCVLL

Tests used:
[1] = molecular target: T1, Cdc42 (Homo sapiens, UniProt P60953); assay: FA binding of FITC-9A5 to recombinant Cdc42
T1 construct: purchased Origene (Rockville, Md.)

[2] = molecular target: T2, glutathione-S-transferase-SHD SH2 domain fusion protein (Homo sapiens, UniProt Q96IW2); assay: FA binding of FITC-9A5 to control protein GST-SH2
T2 construct: glutathione-S-transferase-SHD SH2 domain fusion protein
T2 sequence (Q96IW2 240-335 limits assumed): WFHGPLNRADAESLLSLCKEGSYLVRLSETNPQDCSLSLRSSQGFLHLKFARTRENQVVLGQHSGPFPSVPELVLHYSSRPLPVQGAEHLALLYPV

[3] = system: glutathione-S-transferase-FKBP fusion protein; assay: FA binding of FITC-9A5 to control protein GST-FKBP
[4] = molecular target: T3, protein-tyrosine phosphatase 1B (Homo sapiens, UniProt P18031); assay: FA binding of FITC-9A5 to control protein PTP1B
T3 sequence (P18031 1-435): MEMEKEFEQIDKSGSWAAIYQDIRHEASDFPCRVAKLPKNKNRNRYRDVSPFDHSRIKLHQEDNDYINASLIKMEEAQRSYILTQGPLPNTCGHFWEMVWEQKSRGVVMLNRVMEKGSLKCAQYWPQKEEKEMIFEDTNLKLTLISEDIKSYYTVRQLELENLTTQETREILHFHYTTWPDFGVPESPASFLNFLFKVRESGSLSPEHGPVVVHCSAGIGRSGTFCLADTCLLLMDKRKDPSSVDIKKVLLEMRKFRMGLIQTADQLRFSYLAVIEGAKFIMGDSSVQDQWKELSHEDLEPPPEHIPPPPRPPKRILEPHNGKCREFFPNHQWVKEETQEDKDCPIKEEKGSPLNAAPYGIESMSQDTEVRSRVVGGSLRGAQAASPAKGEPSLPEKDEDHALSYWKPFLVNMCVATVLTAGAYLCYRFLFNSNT

CCCC[C@H]1NC(=O)[C@H](Cc2ccc(F)cc2)NC(=O)[C@H](CCCNC(=N)N)NC(=O)[C@@H](Cc2ccc3ccccc3c2)NC(=O)[C@H](CCCCNC(=S)Nc2ccc3c(c2)C(=O)OC32c3ccc(O)cc3Oc3cc(O)ccc32)NC(=O)[C@H](CCCNC(=N)N)NC(=O)[C@H](CCCNC(=N)N)NC(=O)[C@@H](C)NC(=O)[C@H]([C@@H](C)O)NC(=O)[C@H](Cc2c[nH]c3ccccc23)NC(=O)[C@H](CCC(N)=O)NC1=O [FITC-9A5] (cyclo(K(FITC)[d2Nal]R[Phe(4-F)][dNle]QWT[dA]RR))
binding to Cdc42 [1]: not
binding to GST-SH2 [2]: no significant binding
binding to GST-FKBP [3]: no significant binding
binding to PTP1B [4]: no significant binding
